Measurements from PubChem BioAssay AID493014 (National Center for Advancing Translational Sciences (NCATS), 2011).
Screen size: about 340,000 compounds; about 170 (0.05%) were called active. The shares of active, inactive and inconclusive entries below differ from those in the screen. Calls come from the whole dose curve; as a rule, active = well fitted inhibition curve with a large enough effect in the signal ratio, with a control signal flat (not every such curve was filed as active); inconclusive = small, poorly fitted or top-dose-only effect, or effect the other way, or a change in a side signal; inactive = flat fitted curve, though single readings scatter; the % refers to the signal ratio. Potencies of inconclusive entries are doubtful fits and often do not repeat.

Test: qHTS Assay to Find Inhibitors of Chronic Active B-Cell Receptor Signaling;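 for activity change, negative = inhibition: plate controls were basal doxycycline-induced cells for no effect and cells given 10 µM MG132 for full effect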
Conditions: ABC-DLBCL IkBa-CBG/CBR reporter, luminescence ratio (green luciferase fused to IkBa over red control in TMD8 lymphoma cells), 4 h; activity change, negative = inhibition: at 46.1 µM (top of the series) unless noted
In short: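 Concentration-response series (up to 46 uM) were applied to TMD8 dual-reporter cells for 4 h at 37C with doxycycline. Green/red ratio, after filter-overlap correction, defined %Activity; red signal alone was normalised to basal cells and zero luminescence.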
Potency is the fitted concentration of half-maximal effect.

Row | SMILES | activity change, negative = inhibition | Potency
1 | Cc1cc(NC(=O)COC(=O)C2CCC(=O)N2)c([N+](=O)[O-])cc1C (centres undefined) | inconclusive: 3.5% | 
2 | CC(C)=C1C2CCC1C1C(=O)N(NC(=O)COc3ccc(C(C)(C)C)cc3)C(=O)C21 (centres undefined) | inactive | 
3 | C/C(=N\NC(=O)c1ccc(O)cc1)c1ccc(N2CCOCC2)cc1 | inconclusive: 253% | 
4 | O=C(CSc1ccc(Cl)cc1)NC1CCCc2ccccc21 (centres undefined) | inconclusive: 4.43% | 
5 | O=C(COc1ccc(Cl)cc1Cl)NN=C1c2ccccc2-c2ccccc21 | inconclusive: 0.717% | 
6 | O=C(c1ccsc1)N1CCCC(N2CCN(c3cccc(C(F)(F)F)c3)CC2)C1 (centres undefined) | inconclusive: -10.8% | 
7 | CCOc1cc(NC(=S)NCC2CCCO2)c(OCC)cc1NC(=O)c1ccc(OC)cc1 (centres undefined) | inactive | 
8 | CCCc1n[nH]c(=S)n1Cc1ccco1 | inconclusive: 1.86% | 
9 | O=C(Nc1ncc(Cl)cn1)c1cccs1 |  | inconclusive: 18.4 µM [falling, partial curve]
10 | O=c1ccc2cc3c(-c4ccccc4)coc3cc2o1 | inactive | 
11 | COc1ccc(CC(=O)Nc2cccc(Cl)c2C)cc1S(=O)(=O)N1CCOCC1 | inconclusive: 2.56% | 
12 | COc1ccc([C@H]2CC(=O)C=C(c3ccc(F)cc3OCc3ccccc3)C2)cc1OC | inactive | 
13 | CC(C)n1nc(C(=O)Nc2nnc(C3CC3)s2)c2ccccc2c1=O | inconclusive: -8.39% | 
14 | Cc1cc(F)ccc1S(=O)(=O)Nc1ncnc2sc3c(c12)CCC3 | inconclusive: 0.851% | 
15 | O=[N+]([O-])c1cc(Cl)cc(/C=N/NC(=S)Nc2ccc(S(=O)(=O)N3CCOCC3)cc2)c1O |  | inconclusive: 25.1 µM [falling, single point]
16 | Oc1ccc(/C(Cc2ccc3ccccc3n2)=N\Nc2ccccc2)c(O)c1 |  | inconclusive: 3.55 µM [falling, full curve, poor fit]
17 | CC1(C(=O)NCCc2c[nH]c3ccccc23)C=CC2(CCCCC2)N1C(=O)c1ccccc1 (centres undefined) | inconclusive: 4.27% | 
18 | COC(=O)C(C)Sc1n[nH]c(=S)s1 (centres undefined) | inconclusive: 15.2% | 
19 | COc1ccc(CN2CCOCC2)c(C)c1C | inconclusive: -2.34% | 
20 | Cc1cc(C)c2nc(C)cc(N/N=C/c3ccc(O)cc3)c2c1 | inconclusive: 16.9% | 
21 | O=C(N=Nc1c(O)[nH]c2ccccc12)c1cc(NS(=O)(=O)c2cccs2)cc(NS(=O)(=O)c2cccs2)c1 | inactive | 

Reformatted in CSV form: 7 of the compounds above.
Row,SMILES,"activity change, negative = inhibition",Potency
2,CC(C)=C1C2CCC1C1C(=O)N(NC(=O)COc3ccc(C(C)(C)C)cc3)C(=O)C21 (centres undefined),inactive,
5,O=C(COc1ccc(Cl)cc1Cl)NN=C1c2ccccc2-c2ccccc21,inconclusive: 0.717%,
9,O=C(Nc1ncc(Cl)cn1)c1cccs1,,"inconclusive: 18.4 µM [falling, partial curve]"
11,COc1ccc(CC(=O)Nc2cccc(Cl)c2C)cc1S(=O)(=O)N1CCOCC1,inconclusive: 2.56%,
16,Oc1ccc(/C(Cc2ccc3ccccc3n2)=N\Nc2ccccc2)c(O)c1,,"inconclusive: 3.55 µM [falling, full curve, poor fit]"
20,Cc1cc(C)c2nc(C)cc(N/N=C/c3ccc(O)cc3)c2c1,inconclusive: 16.9%,
21,O=C(N=Nc1c(O)[nH]c2ccccc12)c1cc(NS(=O)(=O)c2cccs2)cc(NS(=O)(=O)c2cccs2)c1,inactive,

(more compounds)

Row | SMILES | activity change, negative = inhibition | Potency
22 | COC(=O)NCC(c1cccnc1)N1CCN(c2ccccc2F)CC1 (centres undefined) | inactive | 
23 | CN(c1ccccc1)S(=O)(=O)c1ccc(C(=O)NCc2cccs2)cc1 | inconclusive: 3.52% | 
24 | COc1ccc(/C=C/C(=O)NC(=S)N2CCSCC2)cc1 |  | inconclusive: 35.5 µM [falling, single point]
25 | O=C(/C=C/c1ccc2c(c1)OCCCO2)c1ccc2ccccc2c1O | inconclusive: 8.65% | 
26 | c1ccc(-c2nc(N3CCNCC3)nc3ccccc23)cc1 | inactive | 
27 | C/C(=N\NC(=O)c1ccccc1O)c1ccc(NC(=O)c2ccccc2)cc1 | inconclusive: 452% | 
28 | COC(=O)C1Cc2ccccc2CN1S(=O)(=O)c1ccc(F)cc1 (centres undefined) | inactive | 
29 | CCC(=O)NC(c1ccc(OC)cc1)c1cc(Cl)c2cccnc2c1O (centres undefined) |  | inconclusive: 8.91 µM [falling, partial curve, poor fit]
30 | COc1cccc(OC)c1C(=O)N1CCNCC1 | inactive | 
31 | Cc1ccccc1OCCc1c(C)[nH]c(=S)[nH]c1=O |  | inconclusive: 11.2 µM [falling, partial curve]
32 | O=C1CC(c2ccc3c(c2)OCO3)c2cc3c(cc2N1)OCCO3 (centres undefined) |  | inconclusive: 29.1 µM [falling, single point]
33 | COc1cc(/C=N/N=C2/C(=O)Nc3ccccc32)ccc1O | inconclusive: -19.4% | 
34 | CO/N=C/c1cn(-c2ccc(Cl)cc2)nn1 | inconclusive: 10.6% | 
35 | Cn1c(SCC(=O)NNC(=O)c2ccccc2Br)nnc1C(F)(F)F | inactive | 
36 | O=C1CN(c2ccccc2)C(=S)N1C(=O)c1ccc(Br)cc1 | inconclusive: -10.9% | 
37 | O=C(c1ccc2c3c(cccc13)CC2)C1CCCN(Cc2ccncc2)C1 (centres undefined) |  | inconclusive: 12.6 µM [falling, partial curve, poor fit]
38 | COc1ccc(C2N(c3ccc4c(c3)OCCO4)C(=O)C2(F)F)cc1OC (centres undefined) | inconclusive: -12.7% | 
39 | COc1ccccc1-c1nnc(SCC(=O)N2CCCCC2)o1 |  | inconclusive: 25.1 µM [falling, single point]
40 | CCOc1ccc2c(c1)C(c1ccc(C)cc1)=NNC(c1ccc(OC)cc1)=N2 | inactive | 
41 | CC(C)(C)N1CC(C(=O)Nc2ccc(C#N)cc2)CC1=O (centres undefined) | inactive | 
42 | Cc1ccc(-n2nnc(-c3cc4ccccc4nc3Cl)n2)cc1 |  | inconclusive: 35.5 µM [falling, single point]

Row | SMILES | activity change, negative = inhibition | Potency
43 | Clc1ccc(-c2nn3c(C4COc5ccccc5O4)nnc3s2)cc1 (centres undefined) | inconclusive: 5.01% | 
44 | COc1ccccc1NC(=O)NCCCCc1ccccc1 | inconclusive: -16.1% | 
45 | COc1ccc(C2=NN(c3nc4ccccc4s3)C(=O)/C2=C\N(C)C)cc1 | inactive | 
46 | COc1cc2c(cc1OC)CN(C(=O)Nc1ccccc1)CC2 |  | inconclusive: 17.8 µM [falling, partial curve]
47 | O=c1c2cc(Br)ccc2nc(-c2ccc(Cl)cc2)n1O |  | inconclusive: 14.1 µM [falling, partial curve]
48 | CSc1ccccc1C(=O)NCCOc1cccc(C)c1 | inactive | 
49 | Cc1ccccc1OCC(O)CNC1CCC(NCC(O)COc2ccccc2C)CC1 (centres undefined) | inconclusive: 18.5% | 
50 | CCC(C)Nc1nc(N)c([N+](=O)[O-])c(NCc2ccccc2)n1 (centres undefined) | inconclusive: -6.61% | 
51 | COc1ccc(NC(=O)C2CCOC(C)(C)C2)cc1 (centres undefined) | inconclusive: 0.0761% | 
52 | O=C(Nc1nc(-c2cccnc2)cs1)c1ccccc1Cl | inconclusive: -21.5% | 
53 | COc1ccc(-c2nc3sc(CCNC(=O)c4ccco4)c(C)n3n2)cc1 | inconclusive: 4.25% | 
54 | Nc1nnc(-c2cc3c(ccc4ccccc43)oc2=O)s1 | inconclusive: 10% | 
55 | Cn1c(Cn2cnc3ccccc32)nnc1SCC(=O)CC(=O)Nc1ccccc1 | inconclusive: -11% | 
56 | COc1ccc(/C=C/C(=O)OC(C)C(=O)c2ccccc2)cc1OC (centres undefined) | inconclusive: 0.789% | 
57 | CC(C)(C)c1ccc(C(=O)Nc2ccc(S(N)(=O)=O)cc2)cc1 |  | inconclusive: 22.4 µM [falling, single point]
58 | COc1ccc(Cn2nnnc2CN(Cc2cc3cc(C)ccc3[nH]c2=O)C2CCCC2)cc1 | inconclusive: 4.71% | 
59 | COc1cc2cnc(-c3ccccc3)cc2cc1OC |  | inconclusive: 18.4 µM [falling, single point]
60 | C=CCSc1nnc2c(n1)OC(c1cccnc1)Nc1ccccc1-2 (centres undefined) | inconclusive: -12.4% | 
61 | COc1ccc(CC(=O)Nc2ccccc2C(=O)N2CCOCC2)cc1 | inconclusive: 6.95% | 
62 | COc1ccccc1-n1cnnc1SCC(=O)Nc1ccccc1 |  | inconclusive: 35.5 µM [falling, single point]
63 | O=C(NCCN1CCOCC1)c1ccc(CSc2nc3ccncc3n2Cc2ccc(F)cc2)cc1 | inactive | 

Row | SMILES | activity change, negative = inhibition | Potency
64 | COc1ccc(-c2cc(-c3ccccc3)n[nH]2)c(O)c1 |  | inconclusive: 25.1 µM [falling, single point]
65 | CCn1c(SCC(=O)O)nnc1-c1cc2c(C)nn(-c3ccccc3)c2s1 | inconclusive: 4.51% | 
66 | COc1ccc(-c2ccc(SCC(=O)NCC3CCCO3)nn2)cc1OC (centres undefined) | inconclusive: 2.17% | 
67 | CC1CCC2C(=O)N(c3ccc(C(=O)Oc4cccc5cccnc45)cc3)C(=O)C2C1 (centres undefined) |  | inconclusive: 20.6 µM [cytotoxic, partial curve]
68 | Cc1ccc(NC(=O)C2CCN(C(=O)c3ccco3)CC2)cc1C | inactive | 
69 | COc1ccccc1CN(C)CC(=O)Nc1ccc(Cl)cc1F | inactive | 
70 | CSc1ccccc1C(=O)Nc1ccc2c(c1)OCO2 | inconclusive: -9.15% | 
71 | COc1cccc2c1OCC(CN1CCN(Cc3ccccc3F)C(CCO)C1)=C2 (centres undefined) | inactive | 
72 | Cc1ccc(NC(=O)c2c(C(F)(F)F)nn(C)c2SCc2ccc(Cl)cc2)cc1C | inactive | 
73 | O=C(CCC1CCCC1)N1CCC(N2CCN(c3ccccc3)CC2)CC1 | inconclusive: 17.1% | 
74 | N=C(N)SCc1cn(-c2ccccc2)nc1-c1ccc(Br)cc1 |  | inconclusive: 17.8 µM [falling, single point]
75 | O=C(Nc1ccccc1N1CCN(c2ccccc2)CC1)c1cccc(F)c1 | inconclusive: 6.44% | 
76 | O=c1c2ccccc2nnn1COc1ccc(F)cc1Cl | inconclusive: -20.5% | 
77 | CCCCCc1cc(=O)oc2c(C(CCN3CCCCC3)c3ccc(OC)cc3)c(OC)cc(OC)c12 (centres undefined) |  | inconclusive: 8.91 µM [falling, partial curve, poor fit]
78 | COc1ccc(/C=C/C(=O)NC2CCN(Cc3ccccc3)CC2)cc1OC | inactive | 
79 | Cc1c(CCC(=O)NCCCC(=O)O)c(=O)oc2cc3oc4c(c3cc12)CCCC4 |  | inconclusive: 7.94 µM [falling, partial curve, poor fit]
80 | NC(=O)CC(NC(=O)c1ccccc1)c1ccc(N2CCCCCCC2)c([N+](=O)[O-])c1 (centres undefined) | inactive | 
81 | O=C(c1nc2nc(-c3cccs3)cc(C(F)(F)F)n2n1)N1CCN(Cc2ccccc2)CC1 | inconclusive: 10.1% | 
82 | C/C(=N\NC(=O)c1ccc(OC2CCCC2)cc1)c1ccc(O)cc1 | inconclusive: -15.8% | 
83 | COc1ccc(C(=O)C2CCCN(S(=O)(=O)c3ccccc3F)C2)c(C)c1 (centres undefined) | inconclusive: -16.2% | 
84 | CC1CC(C)CN(C(=O)/C(=C\c2ccccc2)c2ccccc2)C1 (centres undefined) | inactive | 
